From article PMC2779455, “The E3 Ubiquitin-Ligase Bmi1/Ring1A Controls the Proteasomal Degradation of Top2α Cleavage Complex – A Potentially New Drug Target” (PLoS ONE, 2009)
No constants are given. Whether binding was seen depends on the method and setting. Some results given as binding are weak or reduced against the parent protein; the word gives no strength.

Sequences of proteins named here, by UniProt entry; tags and fusion partners are left off. A change or cut given only in a name is not applied to a line headed by its entry.
UniProt P35226: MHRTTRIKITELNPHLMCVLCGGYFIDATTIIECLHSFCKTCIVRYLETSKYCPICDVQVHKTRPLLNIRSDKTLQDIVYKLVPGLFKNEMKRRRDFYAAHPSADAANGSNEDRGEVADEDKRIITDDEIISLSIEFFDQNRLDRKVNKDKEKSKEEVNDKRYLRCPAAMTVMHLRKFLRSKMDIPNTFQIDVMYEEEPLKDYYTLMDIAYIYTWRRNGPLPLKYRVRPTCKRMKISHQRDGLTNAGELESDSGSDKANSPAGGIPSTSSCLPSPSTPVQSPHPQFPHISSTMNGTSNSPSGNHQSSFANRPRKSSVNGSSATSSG
UniProt P11388: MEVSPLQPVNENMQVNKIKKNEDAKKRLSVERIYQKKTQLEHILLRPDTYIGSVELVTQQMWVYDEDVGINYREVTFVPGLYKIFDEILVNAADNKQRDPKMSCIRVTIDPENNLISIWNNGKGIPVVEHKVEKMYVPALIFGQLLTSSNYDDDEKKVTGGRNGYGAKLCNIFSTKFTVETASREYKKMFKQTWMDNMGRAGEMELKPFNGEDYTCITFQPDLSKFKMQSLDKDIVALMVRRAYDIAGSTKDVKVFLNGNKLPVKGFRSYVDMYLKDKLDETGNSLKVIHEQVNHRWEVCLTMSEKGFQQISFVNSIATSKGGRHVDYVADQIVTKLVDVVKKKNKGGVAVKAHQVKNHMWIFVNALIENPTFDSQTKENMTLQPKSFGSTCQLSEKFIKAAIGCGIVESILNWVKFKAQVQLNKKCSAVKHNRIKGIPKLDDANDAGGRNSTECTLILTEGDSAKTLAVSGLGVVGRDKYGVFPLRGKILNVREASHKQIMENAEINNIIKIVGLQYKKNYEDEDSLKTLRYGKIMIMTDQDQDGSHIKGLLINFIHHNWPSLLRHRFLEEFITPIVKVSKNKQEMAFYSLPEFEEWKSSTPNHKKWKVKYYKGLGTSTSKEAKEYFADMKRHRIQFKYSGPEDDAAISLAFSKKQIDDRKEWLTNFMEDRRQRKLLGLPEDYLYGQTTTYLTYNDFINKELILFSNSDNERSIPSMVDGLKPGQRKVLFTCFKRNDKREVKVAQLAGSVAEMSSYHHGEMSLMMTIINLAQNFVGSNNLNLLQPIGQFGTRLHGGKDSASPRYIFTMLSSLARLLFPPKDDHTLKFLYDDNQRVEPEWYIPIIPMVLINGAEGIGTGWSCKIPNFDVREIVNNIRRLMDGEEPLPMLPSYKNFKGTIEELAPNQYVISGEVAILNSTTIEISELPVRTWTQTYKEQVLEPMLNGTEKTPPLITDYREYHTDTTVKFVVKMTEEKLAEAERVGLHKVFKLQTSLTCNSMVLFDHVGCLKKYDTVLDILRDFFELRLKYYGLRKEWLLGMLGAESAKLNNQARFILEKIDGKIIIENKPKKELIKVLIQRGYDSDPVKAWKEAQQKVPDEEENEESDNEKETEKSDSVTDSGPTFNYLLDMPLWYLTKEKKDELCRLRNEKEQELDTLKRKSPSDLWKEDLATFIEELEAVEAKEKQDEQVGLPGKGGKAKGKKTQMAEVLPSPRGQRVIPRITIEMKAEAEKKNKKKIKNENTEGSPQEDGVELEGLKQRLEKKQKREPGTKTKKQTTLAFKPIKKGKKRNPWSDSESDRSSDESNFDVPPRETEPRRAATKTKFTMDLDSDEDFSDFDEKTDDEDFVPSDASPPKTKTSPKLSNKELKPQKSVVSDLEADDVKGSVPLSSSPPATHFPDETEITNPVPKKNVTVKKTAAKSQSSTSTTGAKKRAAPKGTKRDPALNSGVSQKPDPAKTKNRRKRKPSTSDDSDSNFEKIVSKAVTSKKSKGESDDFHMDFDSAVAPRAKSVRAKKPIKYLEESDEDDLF
UniProt Q06587: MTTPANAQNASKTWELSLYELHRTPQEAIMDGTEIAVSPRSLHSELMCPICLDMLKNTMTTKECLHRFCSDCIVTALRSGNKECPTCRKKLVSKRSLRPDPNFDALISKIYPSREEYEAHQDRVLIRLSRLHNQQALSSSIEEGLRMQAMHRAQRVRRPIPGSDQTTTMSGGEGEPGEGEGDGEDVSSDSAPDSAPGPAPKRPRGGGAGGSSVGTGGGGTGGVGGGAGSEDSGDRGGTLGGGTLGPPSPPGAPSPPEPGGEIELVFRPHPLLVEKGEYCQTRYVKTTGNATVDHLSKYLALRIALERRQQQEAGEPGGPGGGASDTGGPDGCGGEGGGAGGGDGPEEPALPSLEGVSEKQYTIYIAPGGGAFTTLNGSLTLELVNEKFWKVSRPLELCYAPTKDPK

Legend:
[1] = target: recombinant GST-Bmi1 fusion protein (N-terminal V5 tag, C-terminal six-histidine tag) (human) (UniProt P35226); experiment: co-purification of a complex; GST-Bmi1/Ring1A complex (wild type or RING domain mutants) produced in bacteria and purified as a complex
recombinant FLAG-Top2α = recombinant FLAG-Top2α (UniProt P11388); experiment: co-IP; cell-free binding assay: recombinant GST-myc-Bmi1 and GST-HA-Ring1A, separately or combined, incubated with or without recombinant FLAG-Top2α; Top2α immunoprecipitated with anti-Flag conjugated beads, bound proteins detected by Western-blot; both purified
[2] = target: Bmi1 L20A RING domain mutant (human) (UniProt P35226); experiment: co-purification of a complex; GST-Bmi1/Ring1A complex (wild type or RING domain mutants) produced in bacteria and purified as a complex

binding [1]	binding (recombinant FLAG-Top2α)	binding [2]	Substance
binds			Ring1A I50A RING domain mutant (from UniProt Q06587 1-406)
	binds		recombinant GST-Bmi1 fusion protein (N-terminal V5 tag, C-terminal six-histidine tag) (from UniProt P35226 1-326)
binds	binds	binds	recombinant GST-Ring1A fusion protein (N-terminal HA tag, C-terminal six-histidine tag) (from UniProt Q06587 1-406)
